Test results reported in patent US20110021746A1 (published 2011).
No constants are given. Whether binding was seen depends on the method and setting. Some binding calls cover weakened binding; strength is not graded here.

Chains of the proteins cited; added tags and fusions are not shown. Residues count along the entry.
UniProt P30530, residues 26-449: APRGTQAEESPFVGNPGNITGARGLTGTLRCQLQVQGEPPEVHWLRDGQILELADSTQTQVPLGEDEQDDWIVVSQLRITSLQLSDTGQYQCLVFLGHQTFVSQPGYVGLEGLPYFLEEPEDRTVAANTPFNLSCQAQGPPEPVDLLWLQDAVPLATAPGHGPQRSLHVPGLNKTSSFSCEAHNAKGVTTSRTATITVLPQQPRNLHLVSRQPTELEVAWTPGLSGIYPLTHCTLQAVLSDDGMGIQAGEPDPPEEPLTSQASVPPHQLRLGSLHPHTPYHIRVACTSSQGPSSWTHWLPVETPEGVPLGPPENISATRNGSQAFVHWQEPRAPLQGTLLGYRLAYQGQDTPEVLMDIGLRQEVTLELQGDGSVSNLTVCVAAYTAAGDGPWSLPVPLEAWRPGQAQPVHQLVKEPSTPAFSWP

Target: Axl (UniProt P30530)
Assay: phage display selection

Binder	binding
SEQ ID NO 332 (designed binder) NVSPPRRARVTDATETTITIRWAVPGFQVDAVPANGQTPIQRTIKRNVSVYTITGLQPGTDYKIYLYTLNDNARSSPVVIDAST	binds
SEQ ID NO 335 (designed binder) NVSPPRRARVTDATETTITIRWKGAQFQVDAVPANGQTPIQRTIARGANVYTITGLQPGTDYKIYLYTLNDNARSSPVVIDAST	binds
SEQ ID NO 336 (designed binder) NVSPPRRARVTDATETTITISWPVPGFQVDAVPANGQTPIQRTIKRDVNSYTITGLQPGTDYKIYLYTLNDNARSSPVVIDAST	binds
SEQ ID NO 343 (designed binder) NVSPPRRARVTDATETTITIRWPAPGFQVDAVPANGQTPIQRTIKRTVNVYTITGLQPGTDYKIYLYTLNDNARSSPVVIDAST	binds
1637110_AXLH01 (designed binder) NVSPPRRARVTDATETTITIRWKVDGFQVDAVPANGQTPIQRTITRNTRTYTITGLQPGTDYKIYLYTLNDNARSSPVVIDAST	binds
SEQ ID NO 344 (designed binder) NVSPPRRARVTDATETTITITWAGPEFQVDAVPANGQTPIQRTIHRGITSYTITGLQPGTDYKIYLYTLNDNARSSPVVIDAST	binds
SEQ ID NO 334 (designed binder) NVSPPRRARVTDATETTITIRWKVLGFQVDAVPANGQTPIQRTIARGARTYTITGLQPGTDYKIYLYTLNDNARSSPVVIDAST	binds
1637110_AXLA12 (designed binder) NVSPPRRARVTDATETTITIRWKVDGFQVDAVPANGQTPIQRTIHRGITVYTITGLQPGTDYKIYLYTLNDNARSSPVVIDAST	binds
1637111_AXLE06 (designed binder) NVSPPRRARVTDATETTITIRWAVSPSTVVGFQVDAVPANGQTPIQRTIKPDVRSYTITGLQPGTDYKIYLYTLNVKGGSASASSPVVIDAST	binds
SEQ ID NO 341 (designed binder) NVSPPRRARVTDATETTITIRWELSRGTITGFQVDAVPANGQTPIQRTIKGAKRSYTITGLQPGTDYKIYLYTLNDNARSSPVVIDAST	binds
SEQ ID NO 342 (designed binder) NVSPPRRARVTDATETTITIRWGPSQGTVTRFQVDAVPANGQTPIQRTIKRAIHTYTITGLQPGTDYKIYLYTLNDNARSSPVVIDAST	binds
SEQ ID NO 338 (designed binder) NVSPPRRARVTDATETTITIRWALPRSAFDRFQVDAVPANGQTPIQRTITTNIRAYTITGLQPGTDYKIYLYTLNDNARSSPVVIDAST	binds
SEQ ID NO 337 (designed binder) NVSPPRRARVTDATETTITIRWGTGFQVDAVPANGQTPIQRTIKRSITSYTITGLQPGTDYKIYLYTLNDNARSSPVVIDAST	binds
1637111_AXLG02 (designed binder) NVSPPRRARVTDATETTITIPWAAGIEANGEITGFQVDAVPANGQTPIQRTIKPDVRSYTITGLQPGTDYKIYLYTLYGAGKTSSPVVIDAST	binds
1637110_AXLE11 (designed binder) NVSPPRRARVTDATETTITIRWAQVLSFQVDAVPANGQTPIQRTIKRDVHSYTITGLQPGTDYKIYLYTLNDNARSSPVVIDAST	binds
1637110_AXLF07 (designed binder) NVSPPRRARVTDATETTITIRWGQFDRFQVDAVPANGQTPIQRTIKRTVHSYTITGLQPGTDYKIYLYTLNDNARSSPVVIDAST	binds
SEQ ID NO 340 (designed binder) NVSPPRRARVTDATETTITIRWTVGGRANSTIPGFQVDAVPANGQTPIQRTITRDIHIYTITGLQPGTDYKIYLYTLNDNARSSPVVIDAST	binds
1637111_AXLB09 (designed binder) NVSPPRRARVTDATETTITISWERSESTVVGLQVDAVPANGQTPIQRTIKPDVRSYTITGLQPGTDYKIYLYTLTVVGKSAHGSSPVVIDAST	binds

More lines, now with the values ahead:

binding	Binder
binds	SEQ ID NO 372 (designed binder) NVSPPRRARVTDATETTITISWGLAPSQFARFQVDAVPANGQTPIQRTIKPDVRSYTITGLQPGTDYKIYLYTLNGYGRGQVASSPVVIDAST
binds	SEQ ID NO 370 (designed binder) NVSPPRRARVTDATETTITIRWKKPKHDGGAKLTGFQVDAVPANGQTPIQRTIKPDVRSYTITGLQPGTDYKIYLYTLNTRGSGHVRSSPVVIDAST
binds	SEQ ID NO 360 (designed binder) NVSPPRRARVTDATETTITITWRPPGFQVDAVPANGQTPIQRTIKRNASSYTITGLQPGTDYKIYLYTLNDNARSSPVVIDAST
binds	SEQ ID NO 351 (designed binder) NVSPPRRARVTDATETTITIRWKIAGFQVDAVPANGQTPIQRTIHRGVRAYTITGLQPGTDYKIYLYTLNDNARSSPVVIDAST
binds	SEQ ID NO 352 (designed binder) NVSPPRRARVTDATETTITIRWKVPGFQVDAVPANGQTPIQRTIHRGATVYTITGLQPGTDYKIYLYTLNDNARSSPVVIDAST
binds	SEQ ID NO 348 (designed binder) NVSPPRRARVTDATETTITIRWPILGFQVDAVPANGQTPIQRTIKRSTHAYTITGLQPGTDYKIYLYTLNDNARSSPVVIDAST
binds	SEQ ID NO 355 (designed binder) NVSPPRRARVTDATETTITIRWAGSGFQVDAVPANGQTPIQRTINRGISAYTITGLQPGTDYKIYLYTLNDNARSSPVVIDAST
binds	SEQ ID NO 347 (designed binder) NVSPPRRARVTDATETTITIRWTPPGFQVDAVPANGQTPIQRTIKRNVNVYTITGLQPGTDYKIYLYTLNDNARSSPVVIDAST
binds	SEQ ID NO 346 (designed binder) NVSPPRRARVTDATETTITIRWSQPGFQVDAVPANGQTPIQRTIARATRAYTITGLQPGTDYKIYLYTLNDNARSSPVVIDAST
binds	SEQ ID NO 365 (designed binder) NVSPPRRARVTDATETTITIRWKLAGSQVVGFQVDAVPANGQTPIQRTIKPDVRSYTITGLQPGTDYKIYLYTLTIRGGSAVGSSPVVIDAST
binds	SEQ ID NO 371 (designed binder) NVSPPRRARVTDATETTITISWRRAESTVVGFQVDAVPANGQTPIQRTIKPDVRSYTITGLQPGTDYKIYLYTLNIRGGSAAASSPVVIDAST
binds	SEQ ID NO 364 (designed binder) NVSPPRRARVTDATETTITISWGLPRSKVVGFQVDAVPANGQTPIQRTIKPDVRSYTITGLQPGTDYKIYLYTLYGYVSGSSPVVIDAST
binds	SEQ ID NO 367 (designed binder) NVSPPRRARVTDATETTITISWGLPRGTVNGFQVDAVPANGQTPIQRTIKGAKRVYTITGLQPGTDYKIYLYTLNDNARSSPVVIDAST
binds	SEQ ID NO 345 (designed binder) NVSPPRRARVTDATETTITIRWELPAGTVNGFQVDAVPANGQTPIQRTIKGAKRGYTITGLQPGTDYKIYLYTLNDNARSSPVVIDAST
binds	SEQ ID NO 349 (designed binder) NVSPPRRARVTDATETTITIRWALPRSEFTRFQVDAVPANGQTPIQRTITSNIRTYTITGLQPGTDYKIYLYTLNDNARSSPVVIDAST
binds	SEQ ID NO 363 (designed binder) NVSPPRRARVTDATETTITIRWALPRSEFTRFQVDAVPANGQTPIQRTITANIRGYTITGLQPGTDYKIYLYTLNDNARSSPVVIDAST
binds	SEQ ID NO 359 (designed binder) NVSPPRRARVTDATETTITISWQQGFQVDAVPANGQTPIQRTIKRSISSYTITGLQPGTDYKIYLYTLNDNARSSPVVIDAST
binds	SEQ ID NO 356 (designed binder) NVSPPRRARVTDATETTITISWKVRFQVDAVPANGQTPIQRTITSSVRSYTITGLQPGTDYKIYLYTLNDNARSSPVVIDAST
binds	SEQ ID NO 350 (designed binder) NVSPPRRARVTDATETTITISWPAGFQVDAVPANGQTPIQRTIKRGKRTYTITGLQPGTDYKIYLYTLNDNARSSPVVIDAST
binds	SEQ ID NO 362 (designed binder) NVSPPRRARVTDATETTITIRWSIGFQVDAVPANGQTPIQRTIKRDAPSYTITGLQPGTDYKIYLYTLNDNARSSPVVIDAST
binds	SEQ ID NO 358 (designed binder) NVSPPRRARVTDATETTITIRWSQVPGFQVDAVPANGQTPIQRTITSDIHIYTITGLQPGTDYKIYLYTLNDNARSSPVVIDAST
binds	SEQ ID NO 361 (designed binder) NVSPPRRARVTDATETTITIRWTLGLGFQVDAVPANGQTPIQRTIKRDAHVYTITGLQPGTDYKIYLYTLNDNARSSPVVIDAST
binds	SEQ ID NO 357 (designed binder) NVSPPRRARVTDATETTITIRWAPPEGFQVDAVPANGQTPIQRTIHRSARSYTITGLQPGTDYKIYLYTLNDNARSSPVVIDAST
